Data from the supplement of paper PMC8728848.
The list shows a part of the results.

Key:
Assay in all cases: glycan array binding signal (z-score within array); higher = stronger binding
Details in all cases: glycan notation: IUPAC condensed, linker removed
[1] = biological target: Fuc(a1-2)[GalNAc(a1-3)]Gal(b1-3)GlcNAc(b1-3)GalNAc
Method in brief: (§1)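 Columns mapping to the same glycan were averaged after glycan names were converted to IUPAC-condensed notation. The data come from 3228 arrays in the Consortium for Functional Glycomics database, limited to those with an available protein sequence. Binding is reported as a within-array Z-score averaged across arrays of one protein sequence and across linkers.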

[2] = biological target: Fuc(a1-2)[GalNAc(a1-3)]Gal(b1-3)GlcNAc(b1-6)GalNAc
Method in brief: as §1

[3] = biological target: Fuc(a1-2)[GalNAc(a1-3)]Gal(b1-4)Glc
Method in brief: as §1

[4] = biological target: Fuc(a1-2)[GalNAc(a1-3)]Gal(b1-4)GlcNAc
Method in brief: as §1

[5] = biological target: Fuc(a1-2)[GalNAc(a1-3)]Gal(b1-4)GlcNAc(b1-2)Man
Method in brief: as §1

[6] = biological target: Fuc(a1-2)[GalNAc(a1-3)]Gal(b1-4)GlcNAc(b1-2)Man(a1-3)[Fuc(a1-2)[GalNAc(a1-3)]Gal(b1-4)GlcNAc(b1-2)Man(a1-6)]Man(b1-4)GlcNAc(b1-4)GlcNAc
Method in brief: as §1

[7] = biological target: Fuc(a1-2)[GalNAc(a1-3)]Gal(b1-4)GlcNAc(b1-2)Man(a1-3)[Fuc(a1-2)[GalNAc(a1-3)]Gal(b1-4)GlcNAc(b1-2)Man(a1-6)]Man(b1-4)GlcNAc(b1-4)[Fuc(a1-6)]GlcNAc
Method in brief: as §1

[8] = biological target: Fuc(a1-2)[GalNAc(a1-3)]Gal(b1-4)GlcNAc(b1-3)Gal(b1-4)GlcNAc
Method in brief: as §1

[9] = biological target: Fuc(a1-2)[GalNAc(a1-3)]Gal(b1-4)GlcNAc(b1-3)Gal(b1-4)GlcNAc(b1-3)Gal(b1-4)GlcNAc
Method in brief: as §1

[10] = biological target: Fuc(a1-2)[GalNAc(a1-3)]Gal(b1-4)GlcNAc(b1-3)GalNAc
Method in brief: as §1

[11] = biological target: Fuc(a1-2)[GalNAc(a1-3)]Gal(b1-4)GlcNAc(b1-3)[Fuc(a1-2)[GalNAc(a1-3)]Gal(b1-4)GlcNAc(b1-6)]GalNAc
Method in brief: as §1

[12] = biological target: Fuc(a1-2)[GalNAc(a1-3)]Gal(b1-4)GlcNAc(b1-6)GalNAc
Method in brief: as §1

[13] = biological target: Fuc(a1-2)[GalNAc(a1-3)]Gal(b1-4)[Fuc(a1-3)]GlcNAc
Method in brief: as §1

[14] = biological target: Fuc(a1-2)[GalNAc(a1-3)]Gal(b1-4)[Fuc(a1-3)]GlcNAc(b1-3)GalNAc
Method in brief: as §1

[15] = biological target: Fuc(a1-2)[GalNAc(a1-4)]Gal(b1-4)GlcNAc
Method in brief: as §1

[16] = biological target: Fuc(a1-2)[GalNAc(b1-3)]Gal
Method in brief: as §1

[17] = biological target: Fuc(a1-3)GlcNAc
Method in brief: as §1

[18] = biological target: Fuc(a1-3)[Gal(b1-4)]Glc6S
Method in brief: as §1

[19] = biological target: Fuc(a1-3)[Gal(b1-4)]GlcNAc
Method in brief: as §1

[20] = biological target: Fuc(a1-3)[Gal(b1-4)]GlcNAc(b1-2)Man
Method in brief: as §1

[21] = biological target: Fuc(a1-3)[Gal(b1-4)]GlcNAc(b1-2)Man(a1-3)[Fuc(a1-3)[Gal(b1-4)]GlcNAc(b1-2)Man(a1-6)]Man(b1-4)GlcNAc(b1-4)GlcNAc
Method in brief: as §1

[22] = biological target: Fuc(a1-3)[Gal(b1-4)]GlcNAc(b1-2)Man(a1-3)[Fuc(a1-3)[Gal(b1-4)]GlcNAc(b1-2)Man(a1-6)]Man(b1-4)GlcNAc(b1-4)[Fuc(a1-6)]GlcNAc
Method in brief: as §1

[23] = biological target: Fuc(a1-3)[Gal(b1-4)]GlcNAc(b1-3)Gal(b1-3)[Fuc(a1-4)]GlcNAc
Method in brief: as §1

[24] = biological target: Fuc(a1-3)[Gal(b1-4)]GlcNAc(b1-3)Gal(b1-4)[Fuc(a1-3)]GlcNAc
Method in brief: as §1

[25] = biological target: Fuc(a1-3)[Gal(b1-4)]GlcNAc(b1-3)Gal(b1-4)[Fuc(a1-3)]GlcNAc(b1-3)Gal(b1-4)[Fuc(a1-3)]GlcNAc
Method in brief: as §1

[26] = biological target: Fuc(a1-3)[Gal(b1-4)]GlcNAc(b1-3)GalNAc
Method in brief: as §1

[27] = biological target: Fuc(a1-3)[Gal(b1-4)]GlcNAc(b1-6)GalNAc
Method in brief: as §1

[28] = biological target: Fuc(a1-3)[Gal(b1-4)]GlcNAc(b1-6)[Gal(b1-3)GlcNAc(b1-3)]Gal(b1-4)Glc
Method in brief: as §1

[29] = biological target: Fuc(a1-3)[Gal(b1-4)]GlcNAc6S
Method in brief: as §1

[30] = biological target: Fuc(a1-3)[Gal3S(b1-4)]Glc
Method in brief: as §1

[31] = biological target: Fuc(a1-3)[Gal3S(b1-4)]GlcNAc
Method in brief: as §1

[32] = biological target: Fuc(a1-3)[Gal3S(b1-4)]GlcNAc6S
Method in brief: as §1

[33] = biological target: Fuc(a1-3)[GalNAc(b1-4)]GlcNAc
Method in brief: as §1

[34] = biological target: Fuc(a1-3)[GalNAc(b1-4)]GlcNAc6S
Method in brief: as §1

[35] = biological target: Fuc(a1-4)GlcNAc
Method in brief: as §1

[36] = biological target: Fuc(b1-3)GlcNAc
Method in brief: as §1

[37] = biological target: Gal(a1-2)Gal
Method in brief: as §1

[38] = biological target: Gal(a1-3)Gal
Method in brief: as §1

[39] = biological target: Gal(a1-3)Gal(b1-3)GlcNAc
Method in brief: as §1

[40] = biological target: Gal(a1-3)Gal(b1-3)GlcNAc(b1-2)Man
Method in brief: as §1

[41] = biological target: Gal(a1-3)Gal(b1-3)GlcNAc(b1-2)Man(a1-3)[Gal(a1-3)Gal(b1-3)GlcNAc(b1-2)Man(a1-6)]Man(b1-4)GlcNAc(b1-4)GlcNAc
Method in brief: as §1

[42] = biological target: Gal(a1-3)Gal(b1-3)GlcNAc(b1-3)GalNAc
Method in brief: as §1

[43] = biological target: Gal(a1-3)Gal(b1-3)GlcNAc(b1-6)GalNAc
Method in brief: as §1

[44] = biological target: Gal(a1-3)Gal(b1-3)[Fuc(a1-4)]GlcNAc(b1-2)Man(a1-3)[Gal(a1-3)Gal(b1-3)[Fuc(a1-4)]GlcNAc(b1-2)Man(a1-6)]Man(b1-4)GlcNAc(b1-4)GlcNAc
Method in brief: as §1

[45] = biological target: Gal(a1-3)Gal(b1-4)Glc
Method in brief: as §1

B1: AT5G24760(45) (Arabidopsis thaliana), Q8LEB2 (protein)
chain: MSASSSSFEQPQVITCNAAVAWRAGEPLVMEEVEVSPPQPLEIRIKVVCTSLCRSDLSAWESQSLLPRIFGHEAAGIVESIGEGVTEFEKGDHVLAVFTGECGSCRHCISGKSNMCQVLGMERKGLMHSDQKTRFSIKGKPVYHYCAVSSFSEYTVVHSGCAVKVDPLAPLHKICLLSCGVAAGLGAAWNVADVQKGSSVVIFGLGTVGLSVAQGAKLRGAAQILGVDINPAKAEQAKTFGVTDFINSNDLSEPIPQVIKRMTGGGADFSFECVGDTGIATTALQSCSDGWGMTVTLGVPKAKPEVSAHYGLFLSGKSLKGTLFGGWKPKSDLPSLIDKYMNKEIMIDEFITHNLSFDEINKAFVLMREGKCLRCVLHMPK
[1]
  glycan array binding signal (z-score): 3.83
[2]
  glycan array binding signal (z-score): -0.586
[3]
  glycan array binding signal (z-score): 0.375
[4]
  glycan array binding signal (z-score): -0.657
[5]
  glycan array binding signal (z-score): -0.179
[6]
  glycan array binding signal (z-score): -0.164
[7]
  glycan array binding signal (z-score): 1.92
[8]
  glycan array binding signal (z-score): 0.254
[9]
  glycan array binding signal (z-score): -0.1
[10]
  glycan array binding signal (z-score): -0.245
[11]
  glycan array binding signal (z-score): -0.246
[12]
  glycan array binding signal (z-score): -0.654
[13]
  glycan array binding signal (z-score): 1.4
[14]
  glycan array binding signal (z-score): 6.82
[15]
  glycan array binding signal (z-score): -0.406
[16]
  glycan array binding signal (z-score): -0.293
[17]
  glycan array binding signal (z-score): 0.356
[18]
  glycan array binding signal (z-score): -0.176
[19]
  glycan array binding signal (z-score): 0.196
[20]
  glycan array binding signal (z-score): -0.611
[21]
  glycan array binding signal (z-score): 0.158
[22]
  glycan array binding signal (z-score): 0.387
[23]
  glycan array binding signal (z-score): -0.49
[24]
  glycan array binding signal (z-score): 0.161
[25]
  glycan array binding signal (z-score): -0.824
[26]
  glycan array binding signal (z-score): 2.37
[27]
  glycan array binding signal (z-score): 1.65
[28]
  glycan array binding signal (z-score): 0.059
[29]
  glycan array binding signal (z-score): 0.092
[30]
  glycan array binding signal (z-score): -0.582
[31]
  glycan array binding signal (z-score): 1.93
[32]
  glycan array binding signal (z-score): -0.218
[33]
  glycan array binding signal (z-score): 1.18
[34]
  glycan array binding signal (z-score): -0.19
[35]
  glycan array binding signal (z-score): 1.12
[36]
  glycan array binding signal (z-score): 1.27
[37]
  glycan array binding signal (z-score): 1.02
[38]
  glycan array binding signal (z-score): 0.612
[39]
  glycan array binding signal (z-score): 7.36
[40]
  glycan array binding signal (z-score): 0.008
[41]
  glycan array binding signal (z-score): 1.07
[42]
  glycan array binding signal (z-score): 0.234
[43]
  glycan array binding signal (z-score): -0.449
[44]
  glycan array binding signal (z-score): 1.46
[45]
  glycan array binding signal (z-score): -0.124
